Test system: swine
Experiment: 2002 swine feed test: fat and TBARS content of raw ground pork
Format: in vivo
Conditions: raw ground pork (bellies)
Text: Applicants conducted a second swine feeding trial to further determine the effects on meat quality of supplementation of a swine diet with alpha-tocopherol (AT), gamma-tocopherol (GT) or mixed tocotrienols (MT). Seventy-two barrows (˜75 lbs.) were transported to the Pioneer Livestock Nutrition Center (PLNC) and randomly placed into individual pens with water and feed provided ad libitum. The pigs received a common diet for seven days. On the eighth day the pigs were weighed individually and a uniform group of sixty pigs with an average body weight of about 75 pounds was selected. The pigs were randomly assigned one of five dietary treatments with 12 pigs per treatment. The feeding trial was initiated on Mar. 12, 2002 and ended on Jun. 19, 2002. The pigs were fed a corn-soybean meal diet formulated to provide adequate levels of all nutrients. In addition, one of five dietary treatments was assigned to each group: control, 300 ppm AT, 450 ppm GT, 150 ppm MT, and 300 ppm MT. To each diet a corn oil premix and a ground corn premix were added with the corn oil premix as a carrier for the supplemental tocopherols and the ground corn premix as the carrier for the MT. The MT supplement was obtained commercially from Fuji Chemical Industries (U.S.A.) Inc. of Robbinsville, N.J., and contained 7.5% alpha-, 12.3% gamma- and 3.0% delta-tocotrienol, as well as 7.2% alpha-tocopherol. […]

Compound	Fat, % (300 ppm in diet) [%]	Fat, % (450 ppm in diet) [%]
Cc1c(C)c2c(c(C)c1O)CC[C@@](C)(CCC[C@H](C)CCC[C@H](C)CCCC(C)C)O2 [AT, alpha-tocopherol]	37.31	–
Cc1c(O)cc2c(c1C)O[C@](C)(CCC[C@H](C)CCC[C@H](C)CCCC(C)C)CC2 [GT, gamma-tocopherol]	–	37.59
